# Some entries share one result that the patent states for a list of compounds.
# Assay: Critical micellar concentration by hydrophobic fluorescence staining with diphenylhexatriene (DPH)
# Format: physicochemical
# Settings: relative to DDM
row,SMILES,CMC smaller than that of DDM (fold)
1,CCCCCCCCCCCCC(CCCCCCCCCCCC)COCC(CO[C@@H]1OC(CO)[C@@H](O)C(O)C1O)(CO[C@@H]1OC(CO)[C@@H](O)C(O)C1O)CO[C@@H]1OC(CO)[C@@H](O)C(O)C1O (some centres unmarked) [NDT-C12],at least 100 ×
2,CCCCCCCCCCCCC(CCCCCCCCCCCC)C(=O)NC(CO[C@@H]1OC(CO)[C@@H](O)C(O)C1O)(CO[C@@H]1OC(CO)[C@@H](O)C(O)C1O)CO[C@@H]1OC(CO)[C@@H](O)C(O)C1O (some centres unmarked) [TDT-C12],at least 100 ×

# — patent US10781229B2, “Tris- or neopentyl glycol-based amphiphiles and uses thereof” (Industry-University Cooperation Foundation Hanyang …, priority 2015, dated 2020)
